Patent US12558329B2, “Methods and compositions for treating 4-hydroxyphenylpyruvate dioxygenase-like (HPDL)-related diseases or disorders” (New York University, priority 2021, dated 2026)

Test system: MIAPACA2 cells
Assay: Pulse-chase study with tyrosine-derived intermediates after two weeks of 13C9-Tyr labelling
Type: cell-based, human
Details: 24 hours
Description: To test if the 4-HMA pathway was directly involved in CoQ10 biosynthesis, cells were labelled with ^13C[…] for two weeks, followed by a chase with non-labelled (12C)-Tyr, (12C)-4-HPPA, (12C)-4-HPLA, (12C)-4-HMA and (12C)-4-HB for 24 hours (FIG. 11I). […] This was consistent with 4-HPPA being downstream of Tyr and upstream of intermediates involved in 4-HB synthesis. […] This placed 4-HMA downstream of 4-HPPA. […] Using the same experimental scheme, the incorporation of Tyr-derived metabolites into CoQ10 was measured. After cells were grown for two weeks in ^13C[…] media, approximately 60% of the intracellular CoQ10 pool was labelled. Based on previous 24 hour labelling experiments, CoQ10 was expected to be fully labelled with ^13C[…] after two weeks at 21% O2. […] After switching two-week ^13C[…] labelled cells from ^13C9- to ^[…][…] for 24 hours, a 20% increase in non-labelled CoQ10 was observed. Addition of 4-[…] and 4-HB in the presence of ^13C[…] increased the fraction and levels of unlabelled CoQ10 by 30% (FIG. 11K). […] For metabolomics, briefly, cells were washed in 4° C. 0.9% saline and metabolites were extracted with 46% methanol:23% H2O:[…] chloroform that contained a labelled amino acid standard mix (MSK-A2-1.2, Cambridge Isotope Laboratories, Inc.). […] Peak heights were analyzed using Xcalibur (ThermoFisher Scientific). […]

With O=C(O)C(=O)Cc1ccc(O)cc1 [Metabolite 4-HPPA, 4-hydroxyphenylpyruvate] the “effect on 4-HB levels” value (exogenous metabolite) was “minimal effect” and the “effect on intracellular levels of the other Tyr-derived metabolites” value (exogenous unlabelled metabolite) was “increased the downstream metabolites 4-HPLA, 4-HMA, but not Tyr”.
